Counter-ions that a name gives are not always drawn. Some of the results follow. The calls rarely recur for the same compound in another form.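 Kinases, fused to nanoluciferase, were expressed in K562 cells; luminescence was measured every 4 h from 2 to 18 h as percent of control (DMSO = 100%, positive control = 0%). A time point is decreased if signal falls significantly (2 sigma). Hits were called by the authors by a rule that is not shown; the count of time points alone does not decide it.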
How the values were obtained:
Experiment in all cases: kinase-Nluc reporter destabilization hit call (1 = scored as downregulated) (binary); higher = compound decreases kinase abundance
Conditions in all cases: K562; 2-18 h
BRAF_V600E = test system: BRAF_V600E
BTK = BTK (UniProt Q06187)
CAMK2A = CAMK2A (UniProt Q9UQM7)
CAMK2G = CAMK2G (UniProt Q13555)
CDK10 = CDK10 (UniProt Q15131)
CDK2 = CDK2 (UniProt P24941)
CDK3 = CDK3 (UniProt Q00526)
CDK4 = CDK4 (UniProt P11802)
CDK5 = CDK5 (UniProt Q00535)
CDK6 = CDK6 (UniProt Q00534)
CDK7 = CDK7 (UniProt P50613)
CDK9 = CDK9 (UniProt P50750)
CHEK2 = CHEK2 (UniProt O96017)
CSF1R = CSF1R (UniProt P07333)
CSK = CSK (UniProt P41240)
CSNK1A1 = CSNK1A1 (UniProt P48729)
CSNK1D = CSNK1D (UniProt P48730)
DDR1 = DDR1 (UniProt Q08345)
DYRK1B = DYRK1B (UniProt Q9Y463)
DYRK2 = DYRK2 (UniProt Q92630)

The chains behind the UniProt entries cited, without tags or fusion partners. Where a name states a change or a piece, a line headed by the entry shows the natural chain unless it says otherwise.
UniProt Q06187: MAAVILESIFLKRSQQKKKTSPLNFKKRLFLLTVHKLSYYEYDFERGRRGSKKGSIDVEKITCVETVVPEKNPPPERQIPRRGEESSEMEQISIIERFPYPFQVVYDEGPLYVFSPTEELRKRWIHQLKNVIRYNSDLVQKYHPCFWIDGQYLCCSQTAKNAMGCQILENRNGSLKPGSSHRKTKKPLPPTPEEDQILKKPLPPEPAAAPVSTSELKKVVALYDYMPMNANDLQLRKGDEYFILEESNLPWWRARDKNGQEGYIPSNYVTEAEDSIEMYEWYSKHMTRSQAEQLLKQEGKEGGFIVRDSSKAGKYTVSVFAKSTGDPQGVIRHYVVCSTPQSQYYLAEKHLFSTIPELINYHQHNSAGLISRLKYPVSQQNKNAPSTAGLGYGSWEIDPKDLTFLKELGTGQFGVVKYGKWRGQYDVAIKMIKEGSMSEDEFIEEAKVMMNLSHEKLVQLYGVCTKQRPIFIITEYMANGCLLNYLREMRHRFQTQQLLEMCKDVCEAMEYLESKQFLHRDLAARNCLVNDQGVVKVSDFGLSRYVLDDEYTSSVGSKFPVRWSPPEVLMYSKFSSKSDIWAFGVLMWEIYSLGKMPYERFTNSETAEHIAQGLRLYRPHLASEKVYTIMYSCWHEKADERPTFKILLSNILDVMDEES
UniProt Q9UQM7, whole entry: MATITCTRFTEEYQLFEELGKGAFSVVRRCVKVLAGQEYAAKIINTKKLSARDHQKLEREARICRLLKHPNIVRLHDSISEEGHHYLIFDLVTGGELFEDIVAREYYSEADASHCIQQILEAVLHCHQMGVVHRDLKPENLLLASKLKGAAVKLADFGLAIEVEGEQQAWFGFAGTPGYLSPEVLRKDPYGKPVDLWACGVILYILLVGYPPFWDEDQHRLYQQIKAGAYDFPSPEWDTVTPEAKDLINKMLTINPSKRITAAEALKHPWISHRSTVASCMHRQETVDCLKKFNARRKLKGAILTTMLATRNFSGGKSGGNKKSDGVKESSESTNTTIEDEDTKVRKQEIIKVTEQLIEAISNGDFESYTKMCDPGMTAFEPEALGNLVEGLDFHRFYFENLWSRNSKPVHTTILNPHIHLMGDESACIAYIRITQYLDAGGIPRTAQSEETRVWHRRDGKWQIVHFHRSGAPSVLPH
UniProt Q13555: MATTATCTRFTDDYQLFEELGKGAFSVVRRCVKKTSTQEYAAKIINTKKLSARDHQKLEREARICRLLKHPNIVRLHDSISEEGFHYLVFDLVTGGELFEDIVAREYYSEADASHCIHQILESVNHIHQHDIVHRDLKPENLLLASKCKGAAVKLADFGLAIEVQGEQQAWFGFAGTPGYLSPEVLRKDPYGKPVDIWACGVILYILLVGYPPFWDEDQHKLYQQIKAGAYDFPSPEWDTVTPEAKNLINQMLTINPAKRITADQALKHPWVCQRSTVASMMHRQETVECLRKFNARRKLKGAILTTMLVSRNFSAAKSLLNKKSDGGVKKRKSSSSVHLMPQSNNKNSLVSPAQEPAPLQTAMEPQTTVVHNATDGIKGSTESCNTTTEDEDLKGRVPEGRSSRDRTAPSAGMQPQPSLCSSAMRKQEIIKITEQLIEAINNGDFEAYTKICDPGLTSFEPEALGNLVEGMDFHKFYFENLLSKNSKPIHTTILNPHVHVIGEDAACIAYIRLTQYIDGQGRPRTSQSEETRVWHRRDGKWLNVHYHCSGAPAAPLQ
UniProt Q00526: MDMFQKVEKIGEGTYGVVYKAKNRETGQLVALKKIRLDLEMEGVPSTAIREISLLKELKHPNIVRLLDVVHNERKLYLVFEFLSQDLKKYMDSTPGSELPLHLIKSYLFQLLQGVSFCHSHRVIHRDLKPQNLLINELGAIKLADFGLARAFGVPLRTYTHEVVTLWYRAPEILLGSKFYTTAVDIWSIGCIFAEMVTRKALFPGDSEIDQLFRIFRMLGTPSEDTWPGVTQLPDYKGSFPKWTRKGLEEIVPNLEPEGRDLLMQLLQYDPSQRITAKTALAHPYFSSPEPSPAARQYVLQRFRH
UniProt P11802: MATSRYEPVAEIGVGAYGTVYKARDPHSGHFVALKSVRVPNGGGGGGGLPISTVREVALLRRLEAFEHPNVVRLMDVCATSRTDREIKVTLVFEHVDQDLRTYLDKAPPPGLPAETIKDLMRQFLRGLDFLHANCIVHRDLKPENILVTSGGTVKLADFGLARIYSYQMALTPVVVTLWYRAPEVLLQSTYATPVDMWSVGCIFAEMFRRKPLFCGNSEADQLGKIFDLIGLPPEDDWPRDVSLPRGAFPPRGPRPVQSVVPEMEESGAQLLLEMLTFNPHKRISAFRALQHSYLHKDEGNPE
UniProt Q00535, whole entry, looked up: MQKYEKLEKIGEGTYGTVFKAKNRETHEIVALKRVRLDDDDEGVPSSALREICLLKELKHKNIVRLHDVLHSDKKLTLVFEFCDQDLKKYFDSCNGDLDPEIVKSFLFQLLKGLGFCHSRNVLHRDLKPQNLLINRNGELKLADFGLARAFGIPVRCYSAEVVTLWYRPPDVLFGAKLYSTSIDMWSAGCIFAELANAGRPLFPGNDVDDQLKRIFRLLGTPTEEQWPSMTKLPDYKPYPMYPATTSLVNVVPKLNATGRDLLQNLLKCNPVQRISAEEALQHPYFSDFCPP
UniProt Q00534, whole entry: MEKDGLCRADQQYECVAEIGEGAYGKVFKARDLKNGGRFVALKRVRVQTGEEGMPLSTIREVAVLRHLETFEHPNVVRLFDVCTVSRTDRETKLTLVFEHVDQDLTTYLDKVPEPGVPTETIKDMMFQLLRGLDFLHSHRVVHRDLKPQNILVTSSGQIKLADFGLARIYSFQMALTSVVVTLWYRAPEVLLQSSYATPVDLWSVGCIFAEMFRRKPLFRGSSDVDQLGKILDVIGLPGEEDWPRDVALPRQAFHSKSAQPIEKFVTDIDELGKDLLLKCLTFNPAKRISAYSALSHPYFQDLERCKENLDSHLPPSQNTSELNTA
UniProt P50750, whole entry: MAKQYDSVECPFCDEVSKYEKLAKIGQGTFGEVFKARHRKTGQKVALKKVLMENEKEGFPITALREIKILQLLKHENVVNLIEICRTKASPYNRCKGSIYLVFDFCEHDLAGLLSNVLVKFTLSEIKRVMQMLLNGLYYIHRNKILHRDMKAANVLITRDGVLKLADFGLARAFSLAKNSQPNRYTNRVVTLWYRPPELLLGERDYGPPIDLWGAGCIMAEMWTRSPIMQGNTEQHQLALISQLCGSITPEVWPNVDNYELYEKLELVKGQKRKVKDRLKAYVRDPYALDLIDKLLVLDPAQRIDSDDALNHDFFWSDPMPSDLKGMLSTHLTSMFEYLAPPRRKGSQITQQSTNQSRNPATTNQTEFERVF
UniProt O96017, whole entry: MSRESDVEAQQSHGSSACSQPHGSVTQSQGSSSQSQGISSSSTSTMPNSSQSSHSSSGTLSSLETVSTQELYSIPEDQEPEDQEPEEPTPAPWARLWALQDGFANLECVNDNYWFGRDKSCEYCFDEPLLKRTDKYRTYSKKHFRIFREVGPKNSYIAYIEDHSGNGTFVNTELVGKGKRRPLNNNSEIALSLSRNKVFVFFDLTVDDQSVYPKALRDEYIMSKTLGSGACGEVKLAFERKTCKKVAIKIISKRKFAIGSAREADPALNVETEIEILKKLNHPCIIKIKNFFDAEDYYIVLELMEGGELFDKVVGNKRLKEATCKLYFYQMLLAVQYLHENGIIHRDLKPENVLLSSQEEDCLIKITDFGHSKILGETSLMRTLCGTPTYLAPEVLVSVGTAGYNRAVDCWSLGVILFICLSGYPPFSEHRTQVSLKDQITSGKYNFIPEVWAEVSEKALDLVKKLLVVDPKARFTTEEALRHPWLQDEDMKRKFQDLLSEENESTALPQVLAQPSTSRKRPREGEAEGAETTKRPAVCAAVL
UniProt P41240: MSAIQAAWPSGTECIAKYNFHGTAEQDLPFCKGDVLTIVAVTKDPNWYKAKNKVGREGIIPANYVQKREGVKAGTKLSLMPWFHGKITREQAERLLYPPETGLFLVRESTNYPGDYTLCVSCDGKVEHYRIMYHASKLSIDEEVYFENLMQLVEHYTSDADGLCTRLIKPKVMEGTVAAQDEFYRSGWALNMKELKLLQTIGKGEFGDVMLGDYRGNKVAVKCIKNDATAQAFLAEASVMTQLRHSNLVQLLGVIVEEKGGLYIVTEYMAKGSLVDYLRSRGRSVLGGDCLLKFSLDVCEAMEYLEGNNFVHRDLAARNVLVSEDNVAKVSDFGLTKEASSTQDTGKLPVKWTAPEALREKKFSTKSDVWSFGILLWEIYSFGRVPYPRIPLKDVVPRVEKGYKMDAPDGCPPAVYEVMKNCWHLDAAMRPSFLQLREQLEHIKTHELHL
UniProt P48729: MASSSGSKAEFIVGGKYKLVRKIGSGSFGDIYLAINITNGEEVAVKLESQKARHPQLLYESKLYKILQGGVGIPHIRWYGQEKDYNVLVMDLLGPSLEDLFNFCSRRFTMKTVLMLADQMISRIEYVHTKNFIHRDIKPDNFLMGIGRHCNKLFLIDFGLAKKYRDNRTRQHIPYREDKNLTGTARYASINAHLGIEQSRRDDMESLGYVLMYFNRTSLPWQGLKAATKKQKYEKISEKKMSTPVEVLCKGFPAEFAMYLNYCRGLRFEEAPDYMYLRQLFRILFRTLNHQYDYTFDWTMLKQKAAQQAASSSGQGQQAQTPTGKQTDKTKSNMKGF
UniProt P48730: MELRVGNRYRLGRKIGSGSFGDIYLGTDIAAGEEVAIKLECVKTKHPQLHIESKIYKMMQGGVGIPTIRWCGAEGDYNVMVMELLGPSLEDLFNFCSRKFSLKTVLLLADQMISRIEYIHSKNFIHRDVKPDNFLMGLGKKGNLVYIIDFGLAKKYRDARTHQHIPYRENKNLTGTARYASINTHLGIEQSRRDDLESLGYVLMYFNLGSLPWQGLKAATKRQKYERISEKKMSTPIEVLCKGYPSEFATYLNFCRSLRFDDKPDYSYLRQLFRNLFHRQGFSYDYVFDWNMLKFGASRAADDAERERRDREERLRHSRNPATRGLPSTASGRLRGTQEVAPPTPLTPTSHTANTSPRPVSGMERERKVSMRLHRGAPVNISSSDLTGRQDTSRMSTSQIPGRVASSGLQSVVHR
UniProt Q08345: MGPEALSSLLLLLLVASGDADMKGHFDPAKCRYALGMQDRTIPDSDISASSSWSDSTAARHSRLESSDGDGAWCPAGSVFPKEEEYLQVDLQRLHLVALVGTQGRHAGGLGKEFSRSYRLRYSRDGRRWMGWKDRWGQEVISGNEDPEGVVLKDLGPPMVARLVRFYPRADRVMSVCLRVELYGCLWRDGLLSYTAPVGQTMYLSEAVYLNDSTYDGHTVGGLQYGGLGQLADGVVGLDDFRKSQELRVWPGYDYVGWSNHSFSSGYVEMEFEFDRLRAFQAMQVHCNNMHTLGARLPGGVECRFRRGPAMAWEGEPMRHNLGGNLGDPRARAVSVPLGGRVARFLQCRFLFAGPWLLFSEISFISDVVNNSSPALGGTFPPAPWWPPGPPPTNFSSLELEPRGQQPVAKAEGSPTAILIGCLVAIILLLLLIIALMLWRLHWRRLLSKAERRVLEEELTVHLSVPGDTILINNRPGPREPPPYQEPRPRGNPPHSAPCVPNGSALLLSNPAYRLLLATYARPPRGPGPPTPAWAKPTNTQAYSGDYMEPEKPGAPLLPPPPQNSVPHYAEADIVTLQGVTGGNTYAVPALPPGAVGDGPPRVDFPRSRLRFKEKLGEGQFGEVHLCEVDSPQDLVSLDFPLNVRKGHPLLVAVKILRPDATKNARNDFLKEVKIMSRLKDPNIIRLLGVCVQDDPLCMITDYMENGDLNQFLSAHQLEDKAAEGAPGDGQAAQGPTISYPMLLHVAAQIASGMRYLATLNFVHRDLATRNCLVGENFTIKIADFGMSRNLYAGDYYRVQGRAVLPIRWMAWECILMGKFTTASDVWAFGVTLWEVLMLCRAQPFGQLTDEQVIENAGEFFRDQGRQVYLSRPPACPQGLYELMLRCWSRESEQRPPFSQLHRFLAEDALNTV
UniProt Q9Y463, whole entry, looked up: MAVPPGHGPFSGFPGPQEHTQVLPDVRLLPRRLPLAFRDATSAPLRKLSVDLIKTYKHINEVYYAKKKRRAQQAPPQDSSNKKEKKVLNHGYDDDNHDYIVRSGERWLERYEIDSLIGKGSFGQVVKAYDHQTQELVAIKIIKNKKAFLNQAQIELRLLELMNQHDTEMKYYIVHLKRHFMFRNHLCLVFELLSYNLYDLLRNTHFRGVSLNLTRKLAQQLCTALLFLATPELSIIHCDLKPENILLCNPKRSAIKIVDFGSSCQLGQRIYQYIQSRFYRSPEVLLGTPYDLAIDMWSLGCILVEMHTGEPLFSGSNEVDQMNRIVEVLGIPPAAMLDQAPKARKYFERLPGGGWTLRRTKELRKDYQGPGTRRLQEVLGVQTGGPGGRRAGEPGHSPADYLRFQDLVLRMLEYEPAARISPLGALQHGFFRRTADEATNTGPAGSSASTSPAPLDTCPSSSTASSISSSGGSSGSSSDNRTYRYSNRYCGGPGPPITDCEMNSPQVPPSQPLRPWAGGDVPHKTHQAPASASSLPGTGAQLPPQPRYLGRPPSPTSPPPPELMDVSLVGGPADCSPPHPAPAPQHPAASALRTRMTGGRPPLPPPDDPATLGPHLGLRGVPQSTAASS

Measured: kinase-Nluc reporter destabilization hit call

CC(C)(C[C@H](N)C(=O)O)C(F)F [NV-5138 (hydrochloride)] (10 µM)
inactive: BRAF_V600E 0 | BTK 0 | CAMK2A 0 | CAMK2G 0 | CDK10 = 0 | CDK2 = 0 | CDK3 = 0 | CDK4 = 0 | CDK5 = 0 | CDK6 = 0 | CDK7 = 0 | CDK9 = 0 | CHEK2 = 0 | CSF1R 0 | CSK 0 | CSNK1A1 = 0 | CSNK1D 0 | DDR1 = 0 | DYRK1B 0 | DYRK2 = 0

C=CC(=O)Nc1cccc(-c2cccc3cnc(Nc4ccc(N5CCN(CCO)CC5)c(F)c4F)nc23)c1 [Olafertinib] (2.5 µM)
inactive: BRAF_V600E 0 | BTK 0 | CAMK2A 0 | CAMK2G 0 | CDK10 = 0 | CDK2 = 0 | CDK3 = 0 | CDK4 = 0 | CDK5 = 0 | CDK6 = 0 | CDK7 = 0 | CDK9 = 0 | CHEK2 = 0 | CSF1R 0 | CSK 0 | CSNK1A1 = 0 | CSNK1D 0 | DDR1 = 0 | DYRK1B 0 | DYRK2 = 0

O=C1O[C@H]([C@@H](O)CO)C(O)=C1OP(=O)(O)O [2-Phospho-L-ascorbic acid (trisodium)] (10 µM)
inactive: BRAF_V600E 0 | BTK 0 | CAMK2A 0 | CAMK2G 0 | CDK10 = 0 | CDK2 = 0 | CDK3 = 0 | CDK4 = 0 | CDK5 = 0 | CDK6 = 0 | CDK7 = 0 | CDK9 = 0 | CHEK2 = 0 | CSF1R 0 | CSK 0 | CSNK1A1 = 0 | CSNK1D 0 | DDR1 = 0 | DYRK1B 0 | DYRK2 = 0

O=C(Nc1nc(=O)n(Cc2ccc(Cl)cc2)s1)c1ccc(Cl)cc1 (10 µM)
inactive: BRAF_V600E 0 | BTK 0 | CAMK2A 0 | CAMK2G 0 | CDK10 = 0 | CDK2 = 0 | CDK3 = 0 | CDK4 = 0 | CDK5 = 0 | CDK6 = 0 | CDK7 = 0 | CDK9 = 0 | CHEK2 = 0 | CSF1R 0 | CSK 0 | CSNK1A1 = 0 | CSNK1D 0 | DDR1 = 0 | DYRK1B 0 | DYRK2 = 0

CNC(=O)c1cc2c(Oc3ccc(NC(=S)NC(=O)Cc4ccccc4)cc3F)ccnc2cc1OC [TAS-115 mesylate] (10 µM)
inactive: BRAF_V600E 0 | BTK 0 | CAMK2A 0 | CAMK2G 0 | CDK10 = 0 | CDK2 = 0 | CDK3 = 0 | CDK4 = 0 | CDK5 = 0 | CDK6 = 0 | CDK7 = 0 | CDK9 = 0 | CHEK2 = 0 | CSF1R 0 | CSK 0 | CSNK1A1 = 0 | CSNK1D 0 | DDR1 = 0 | DYRK1B 0 | DYRK2 = 0

COc1cc(N2CCOCC2)ccc1Nc1ncc(Cl)c(Nc2ccccc2NS(C)(=O)=O)n1 (2.5 µM)
inactive: BRAF_V600E 0 | BTK 0 | CAMK2A 0 | CAMK2G 0 | CDK10 = 0 | CDK2 = 0 | CDK3 = 0 | CDK4 = 0 | CDK5 = 0 | CDK6 = 0 | CDK7 = 0 | CDK9 = 0 | CHEK2 = 0 | CSF1R 0 | CSK 0 | CSNK1A1 = 0 | CSNK1D 0 | DDR1 = 0 | DYRK1B 0 | DYRK2 = 0

C=CC(=O)Nc1cccc(CNc2nc(Nc3ccc(N4CCN(C)CC4)cc3OC)ncc2Cl)c1 (10 µM)
inactive: BRAF_V600E 0 | BTK 0 | CAMK2A 0 | CAMK2G 0 | CDK10 = 0 | CDK2 = 0 | CDK3 = 0 | CDK4 = 0 | CDK5 = 0 | CDK6 = 0 | CDK7 = 0 | CDK9 = 0 | CHEK2 = 0 | CSF1R 0 | CSK 0 | CSNK1A1 = 0 | CSNK1D 0 | DDR1 = 0 | DYRK1B 0 | DYRK2 = 0

For reference, 5 of the compounds above.
O=C1O[C@H]([C@@H](O)CO)C(O)=C1OP(=O)(O)O [2-Phospho-L-ascorbic acid (trisodium)] (10 µM)
inactive: BRAF_V600E 0 | BTK 0 | CAMK2A 0 | CAMK2G 0 | CDK10 = 0 | CDK2 = 0 | CDK3 = 0 | CDK4 = 0 | CDK5 = 0 | CDK6 = 0 | CDK7 = 0 | CDK9 = 0 | CHEK2 = 0 | CSF1R 0 | CSK 0 | CSNK1A1 = 0 | CSNK1D 0 | DDR1 = 0 | DYRK1B 0 | DYRK2 = 0

O=C(Nc1nc(=O)n(Cc2ccc(Cl)cc2)s1)c1ccc(Cl)cc1 (10 µM)
inactive: BRAF_V600E 0 | BTK 0 | CAMK2A 0 | CAMK2G 0 | CDK10 = 0 | CDK2 = 0 | CDK3 = 0 | CDK4 = 0 | CDK5 = 0 | CDK6 = 0 | CDK7 = 0 | CDK9 = 0 | CHEK2 = 0 | CSF1R 0 | CSK 0 | CSNK1A1 = 0 | CSNK1D 0 | DDR1 = 0 | DYRK1B 0 | DYRK2 = 0

CNC(=O)c1cc2c(Oc3ccc(NC(=S)NC(=O)Cc4ccccc4)cc3F)ccnc2cc1OC [TAS-115 mesylate] (10 µM)
inactive: BRAF_V600E 0 | BTK 0 | CAMK2A 0 | CAMK2G 0 | CDK10 = 0 | CDK2 = 0 | CDK3 = 0 | CDK4 = 0 | CDK5 = 0 | CDK6 = 0 | CDK7 = 0 | CDK9 = 0 | CHEK2 = 0 | CSF1R 0 | CSK 0 | CSNK1A1 = 0 | CSNK1D 0 | DDR1 = 0 | DYRK1B 0 | DYRK2 = 0

COc1cc(N2CCOCC2)ccc1Nc1ncc(Cl)c(Nc2ccccc2NS(C)(=O)=O)n1 (2.5 µM)
inactive: BRAF_V600E 0 | BTK 0 | CAMK2A 0 | CAMK2G 0 | CDK10 = 0 | CDK2 = 0 | CDK3 = 0 | CDK4 = 0 | CDK5 = 0 | CDK6 = 0 | CDK7 = 0 | CDK9 = 0 | CHEK2 = 0 | CSF1R 0 | CSK 0 | CSNK1A1 = 0 | CSNK1D 0 | DDR1 = 0 | DYRK1B 0 | DYRK2 = 0

C=CC(=O)Nc1cccc(CNc2nc(Nc3ccc(N4CCN(C)CC4)cc3OC)ncc2Cl)c1 (10 µM)
inactive: BRAF_V600E 0 | BTK 0 | CAMK2A 0 | CAMK2G 0 | CDK10 = 0 | CDK2 = 0 | CDK3 = 0 | CDK4 = 0 | CDK5 = 0 | CDK6 = 0 | CDK7 = 0 | CDK9 = 0 | CHEK2 = 0 | CSF1R 0 | CSK 0 | CSNK1A1 = 0 | CSNK1D 0 | DDR1 = 0 | DYRK1B 0 | DYRK2 = 0

Later entries

NC1=NCCN1CC(=O)O [Cyclocreatine] (10 µM)
inactive: BRAF_V600E 0 | BTK 0 | CAMK2A 0 | CAMK2G 0 | CDK10 = 0 | CDK2 = 0 | CDK3 = 0 | CDK4 = 0 | CDK5 = 0 | CDK6 = 0 | CDK7 = 0 | CDK9 = 0 | CHEK2 = 0 | CSF1R 0 | CSK 0 | CSNK1A1 = 0 | CSNK1D 0 | DDR1 = 0 | DYRK1B 0 | DYRK2 = 0

O[C@@H]1CO[C@H]2[C@@H]1OC[C@H]2Oc1nc2nc(-c3ccc(-c4ccccc4)cc3)c(Cl)cc2[nH]1 (10 µM)
inactive: BRAF_V600E 0 | BTK 0 | CAMK2A 0 | CAMK2G 0 | CDK10 = 0 | CDK2 = 0 | CDK3 = 0 | CDK4 = 0 | CDK5 = 0 | CDK6 = 0 | CDK7 = 0 | CDK9 = 0 | CHEK2 = 0 | CSF1R 0 | CSK 0 | CSNK1A1 = 0 | CSNK1D 0 | DDR1 = 0 | DYRK1B 0 | DYRK2 = 0

CC(C)(C)n1nc(Cc2ccccc2O)c2c(N)ncnc21 (10 µM)
inactive: BRAF_V600E 0 | BTK 0 | CAMK2A 0 | CAMK2G 0 | CDK10 = 0 | CDK2 = 0 | CDK3 = 0 | CDK4 = 0 | CDK5 = 0 | CDK6 = 0 | CDK7 = 0 | CDK9 = 0 | CHEK2 = 0 | CSF1R 0 | CSK 0 | CSNK1A1 = 0 | CSNK1D 0 | DDR1 = 0 | DYRK1B 0 | DYRK2 = 0

Cn1cnc([N+](=O)[O-])c1C[N+](C)(C)C/C=C/C(=O)Nc1cc2c(Nc3ccc(Cl)c(Br)c3)ncnc2cn1 [Tarloxotinib (bromide)] (10 µM)
inactive: BRAF_V600E 0 | BTK 0 | CAMK2A 0 | CAMK2G 0 | CDK10 = 0 | CDK2 = 0 | CDK3 = 0 | CDK4 = 0 | CDK5 = 0 | CDK6 = 0 | CDK7 = 0 | CDK9 = 0 | CHEK2 = 0 | CSF1R 0 | CSK 0 | CSNK1A1 = 0 | CSNK1D 0 | DDR1 = 0 | DYRK1B 0 | DYRK2 = 0

Cn1cc(-c2cnc3cnn(S(=O)(=O)c4cnc5ccc(-c6cnn(C)c6)cn45)c3c2)cn1 [Glumetinib] (10 µM)
inactive: BRAF_V600E 0 | BTK 0 | CAMK2A 0 | CAMK2G 0 | CDK10 = 0 | CDK2 = 0 | CDK3 = 0 | CDK4 = 0 | CDK5 = 0 | CDK6 = 0 | CDK7 = 0 | CDK9 = 0 | CHEK2 = 0 | CSF1R 0 | CSK 0 | CSNK1A1 = 0 | CSNK1D 0 | DDR1 = 0 | DYRK1B 0 | DYRK2 = 0

NC(=O)N1CCC(CC(=O)N2CCC([C@H]3c4ncc(Br)cc4CCc4cc(Cl)cc(Br)c43)CC2)CC1 [Lonafarnib] (2.5 µM)
inactive: BRAF_V600E 0 | BTK 0 | CAMK2A 0 | CAMK2G 0 | CDK10 = 0 | CDK2 = 0 | CDK3 = 0 | CDK4 = 0 | CDK5 = 0 | CDK6 = 0 | CDK7 = 0 | CDK9 = 0 | CHEK2 = 0 | CSF1R 0 | CSK 0 | CSNK1A1 = 0 | CSNK1D 0 | DDR1 = 0 | DYRK1B 0 | DYRK2 = 0

COc1ccc(-c2c(C)nn3c(NCCN4CCOCC4)cc(C)nc23)cc1OC (10 µM)
inactive: BRAF_V600E 0 | BTK 0 | CAMK2A 0 | CAMK2G 0 | CDK10 = 0 | CDK2 = 0 | CDK3 = 0 | CDK4 = 0 | CDK5 = 0 | CDK6 = 0 | CDK7 = 0 | CDK9 = 0 | CHEK2 = 0 | CSF1R 0 | CSK 0 | CSNK1A1 = 0 | CSNK1D 0 | DDR1 = 0 | DYRK1B 0 | DYRK2 = 0

O=[N+]([O-])c1ccc(Nc2nc(N3CCOCC3)nc(N3CCOCC3)n2)cc1 (10 µM)
inactive: BRAF_V600E 0 | BTK 0 | CAMK2A 0 | CAMK2G 0 | CDK10 = 0 | CDK2 = 0 | CDK3 = 0 | CDK4 = 0 | CDK5 = 0 | CDK6 = 0 | CDK7 = 0 | CDK9 = 0 | CHEK2 = 0 | CSF1R 0 | CSK 0 | CSNK1A1 = 0 | CSNK1D 0 | DDR1 = 0 | DYRK1B 0 | DYRK2 = 0

COc1ccc(S(=O)(=O)NCc2ccc(C(=O)NCCc3ccc(Cl)cn3)cc2)cc1 (10 µM)
inactive: BRAF_V600E 0 | BTK 0 | CAMK2A 0 | CAMK2G 0 | CDK10 = 0 | CDK2 = 0 | CDK3 = 0 | CDK4 = 0 | CDK5 = 0 | CDK6 = 0 | CDK7 = 0 | CDK9 = 0 | CHEK2 = 0 | CSF1R 0 | CSK 0 | CSNK1A1 = 0 | CSNK1D 0 | DDR1 = 0 | DYRK1B 0 | DYRK2 = 0

C[C@H](Nc1ncnc2nc[nH]c12)c1cc2cccc(Cl)c2c(=O)n1-c1ccccc1 [Duvelisib] (10 µM)
inactive: BRAF_V600E 0 | BTK 0 | CAMK2A 0 | CAMK2G 0 | CDK10 = 0 | CDK2 = 0 | CDK3 = 0 | CDK4 = 0 | CDK5 = 0 | CDK6 = 0 | CDK7 = 0 | CDK9 = 0 | CHEK2 = 0 | CSF1R 0 | CSK 0 | CSNK1A1 = 0 | CSNK1D 0 | DDR1 = 0 | DYRK1B 0 | DYRK2 = 0

COc1ccc(/C=C/C(=O)C2(C(=O)/C=C/c3ccc(OC)c(OC)c3)CCCCC2)cc1OC (2.5 µM)
inactive: BRAF_V600E 0 | BTK 0 | CAMK2A 0 | CAMK2G 0 | CDK10 = 0 | CDK2 = 0 | CDK3 = 0 | CDK4 = 0 | CDK5 = 0 | CDK6 = 0 | CDK7 = 0 | CDK9 = 0 | CHEK2 = 0 | CSF1R 0 | CSK 0 | CSNK1A1 = 0 | CSNK1D 0 | DDR1 = 0 | DYRK1B 0 | DYRK2 = 0

Source: the supplement of paper PMC12823440, “Inhibitors supercharge kinase turnover through native proteolytic circuits” (Nature, 2025)
